The target in assay [1] is human Fas (human) (UniProt P25445). Nature of the assay: co-immunoprecipitation (summary of the result).
For assay [2] the target is unchanged. The assay is described as follows: co-immunoprecipitation with anti-human Fas antibodies, immunoblot, transiently transfected cells. (Immunoblotting shows a protein as a band on a membrane.)

Chains of the proteins cited; added tags and fusions are not shown. Residues count along the entry.
UniProt P25445, residues 26-335: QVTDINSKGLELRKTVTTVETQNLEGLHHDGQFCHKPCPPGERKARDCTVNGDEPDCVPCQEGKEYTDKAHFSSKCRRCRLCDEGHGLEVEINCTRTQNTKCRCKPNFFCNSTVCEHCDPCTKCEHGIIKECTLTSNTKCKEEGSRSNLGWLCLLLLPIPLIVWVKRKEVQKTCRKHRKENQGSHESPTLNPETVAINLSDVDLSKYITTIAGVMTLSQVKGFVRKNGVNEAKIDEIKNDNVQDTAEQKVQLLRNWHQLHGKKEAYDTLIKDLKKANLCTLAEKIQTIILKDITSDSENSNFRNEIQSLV

For one molecule, binding results are on record in patent US6500940 (SALK INSTITUTE FOR BIOLOGICAL STUDIES, dated 2002).

Results are given in words; binding and its absence hold for the method and conditions named. In cells and extracts the contact can be indirect. Some binding calls cover weakened binding; strength is not graded here. Sequences can lack the tags named with a protein.

B1: amino-terminal myc epitope-tagged LFG (myc-LFG) (other, not shown: small tags and cut ends)
chain: MTRGKLSVANKAPGTEGQQQVHGEKKEAPAVPSAPPSYEEATSGEGMKAGAFPPAPTAVPLHPSWAYVDPSSSSSYDNGFPPETMSSSPLSAGMTKKVRRVFVRKVYTILLIQLLVTLAVVALFTFCDPCQGLCSGQPGWYWASYAVFFATYLTLACCSGPRRHFPWNLILLTVFTLSMAYLTGMLSSYYNTTSVLLCLGITALVCLSVTVFSFQTKFDFTSCQGVLFVLLMTLFFSGLILAILLPFQYVPWLHAVYAALGAGVFTLFLALDTQLLMGNRRHSLSPEEYIFGALNIYLDIIYIFTFFLQLFGTNRE
notes: Expressed from an expression vector by transient transfection (HeLa, 293 cells) and found by immunoprecipitation and immunoblot; also called lifeguard
For the molecule B1, the binding result with human Fas (human) [1] and with human Fas (human) [2] was “binds” in each case.
